{
  "source": "paper PMC7787666",
  "about": "“BUB-1 targets PP2A:B56 to regulate chromosome congression during meiosis I in C. elegans oocytes” (eLife, 2020)",
  "assay_in_all_cases": "fluorescence polarisation; FITC-labelled peptide at 0.5-1 µM, 1:2 serial dilution of PPTR-2; FP buffer (50 mM NaP pH 7.5, 150 mM NaCl, 0.5 mM TCEP); 30 min; 384-well plate, PheraStar FS; both purified",
  "key": {"[1]": {"molecular_target": "T1, BUB-1 LxxIxE motif peptide (FITC-Ahx-…) (C. elegans)", "T1 sequence (peptide, FITC-Ahx on the N-terminus)": "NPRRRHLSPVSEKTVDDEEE"}, "[2]": {"molecular_target": "T2, LAVA peptide, BUB-1 LxxIxE motif with L282A,V285A (FITC-Ahx-…) (C. elegans)", "T2 sequence (peptide, FITC-Ahx on the N-terminus)": "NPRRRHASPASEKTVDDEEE"}, "[3]": {"molecular_target": "T3, pBUB-1 LxxIxE motif peptide, phosphorylated at Ser 283 (FITC-Ahx-NPRRRHLph…) (C. elegans)", "T3 sequence (peptide, FITC-Ahx on the N-terminus; phosphoserine at 283)": "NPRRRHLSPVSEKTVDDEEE"}},
  "note": "Results are given in words; binding and its absence hold for the method and conditions named. For part of these data: A result given as binding can be weak or reduced; the word gives no strength.",
  "data": [
    {"substance": "PPTR-2 (purified recombinant) (C. elegans)", "values": [
      {"measurement": "binding", "setting": "[1]", "result": "binds"},
      {"measurement": "binding", "setting": "[2]", "result": "no binding"},
      {"measurement": "binding", "setting": "[3]", "result": "binds"}
    ]}
  ]
}
